Values from PubChem BioAssay AID602196 (INSERM, 2012)

- Purpose: 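Knock-downs that protect lung cancer cells from cisplatin or sensitise them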
- Cell system: human A549 lung cancer cells
- Reagents: siRNA pair against human genes
- Duration: 48 h transfection before cisplatin; time from cisplatin to read-out not stated
- Challenge: cisplatin at a dose killing half of control-siRNA cells; exact dose and duration not given
- Read-out: 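Cisplatin cell death as a shift from the 50% death seen with control siRNA; siRNAs toxic or growth-blocking alone scored 0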
- Direction: two-siRNA summed score (-2 to +2): higher = both siRNAs protect from cisplatin killing; -2 means both sensitise; mean protection from cisplatin (shift in death) and protection from cisplatin (shift in death), siRNA C and protection from cisplatin (shift in death), siRNA D: higher = protection from cisplatin killing
- Rule for the call: 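siRNAs harmful alone (LDH or WST-1) get 0; others get +1 for less and -1 for more cisplatin killing; genes are active when the two siRNAs give the same sign, summing to ±2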
- Meaning of the calls: active = both siRNAs shift cisplatin killing the same way; inactive = no consistent shift, or siRNA harmful alone
The deposit covers about 23,000 reagents; below is an unselected part. In the full data, 455 (2%) were called active. 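Active includes both protection and sensitisation; some change values fall well beyond the stated -50 to +50 range.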 The numbers tell different reagents against one gene apart. No sequences are given here. Not stated in the record: the amount of reagent.

| gene knocked down | reagent no. | two-siRNA summed score (-2 to +2) | mean protection from cisplatin (shift in death) (%) | protection from cisplatin (shift in death), siRNA C (%) | protection from cisplatin (shift in death), siRNA D (%) | Outcome |
| --- | --- | --- | --- | --- | --- | --- |
| CKMT2 (GeneID 1160) | 1 | 1 | 7.5 | -9.5 | 24.5 | inactive |
| SACS (GeneID 26278) | 1 | 0 | -12.2 | -12.5 | -11.9 | inactive |
| ZBTB21 (GeneID 49854) | 1 | 0 | 14.8 | 39.5 | -9.9 | inactive |
| TRIM29 (GeneID 23650) | 1 | -1 | -6.8 | 4.3 | -17.9 | inactive |
| SWSAP1 (GeneID 126074) | 1 | 0 | 7.6 | 9.8 | 5.3 | inactive |
| LOC440123 | 1 | 1 | 14 | 16.2 | 11.8 | inactive |
| MTCL1 (GeneID 23255) | 1 | 0 | 0.9 | -5.7 | 7.4 | inactive |
| GOLGA4 (GeneID 2803) | 1 | -1 | -0.5 | 9.5 | -10.5 | inactive |
| ADGRE4P (GeneID 326342) | 1 | -2 | -12.8 | -17.1 | -8.6 | active |
| LOC440932 | 1 | 0 | 4.7 | 9.5 | 0 | inactive |
| YIPF5 (GeneID 81555) | 1 | 0 | -0.3 | -6.7 | 6.2 | inactive |
| RARB (GeneID 5915) | 1 | 0 | -3.5 | -13.9 | 7 | inactive |
| SDC4 (GeneID 6385) | 1 | 0 | -3.1 | -1.3 | -4.9 | inactive |
| LRRK2 (GeneID 120892) | 1 | 0 | 6.6 | 5 | 8.3 | inactive |
| STAT4 (GeneID 6775) | 1 | 0 | -5.9 | -6 | -5.7 | inactive |
| ACADVL (GeneID 37) | 1 | 0 | -1 | 12.6 | -14.6 | inactive |
| PDCD1 (GeneID 5133) | 1 | 0 | -3.6 | -1.1 | -6.1 | inactive |
| PLA2G2D (GeneID 26279) | 1 | 0 | -16.1 | -21.2 | -11.1 | inactive |
| AGAP12P (GeneID 414224) | 1 | 0 | 9.6 | 7.5 | 11.7 | inactive |
| CASTOR3P (GeneID 352954) | 1 | -1 | -7.2 | -8.8 | -5.5 | inactive |
| LOC400301 | 1 | 0 | 8.5 | 10.1 | 7 | inactive |
| INF2 (GeneID 64423) | 1 | 0 | -1.5 | -12.6 | 9.5 | inactive |
| INF2 (GeneID 64423) | 2 | 0 | -0.2 | -11.8 | 11.4 | inactive |
| BRMS1 (GeneID 25855) | 1 | -1 | -3.7 | -17.4 | 9.9 | inactive |
| E2F2 (GeneID 1870) | 1 | 0 | -7.5 | -15.2 | 0.2 | inactive |
| MAPKAPK5 (GeneID 8550) | 1 | 0 | 1 | -0.3 | 2.3 | inactive |
| MMP1 (GeneID 4312) | 1 | 0 | 1.8 | 14.5 | -10.8 | inactive |
| LOC391276 | 1 | 1 | 10.7 | 5.1 | 16.3 | inactive |
| SPTY2D1 (GeneID 144108) | 1 | 0 | -10 | -3.5 | -16.5 | inactive |
| MYBPH (GeneID 4608) | 1 | 0 | 11.6 | 26.7 | -3.5 | inactive |
| NPAS1 (GeneID 4861) | 1 | -1 | -15.5 | -26.3 | -4.7 | inactive |
| LOC440746 | 1 | 0 | -0.5 | -10.6 | 9.7 | inactive |
| PAMR1 (GeneID 25891) | 1 | 0 | 4.2 | 10.6 | -2.1 | inactive |
| AHSG (GeneID 197) | 1 | 0 | -5.1 | -5.1 | -5 | inactive |
| PPOX (GeneID 5498) | 1 | 0 | -1.1 | -16.8 | 14.7 | inactive |
| REXO1L1P (GeneID 254958) | 1 | 0 | 4.5 | 6.6 | 2.3 | inactive |
| GDPD3 (GeneID 79153) | 1 | 0 | 0.5 | 5.3 | -4.4 | inactive |
| LOC388828 | 1 | 0 | 24.3 | 26 | 22.7 | inactive |
| SPAG1 (GeneID 6674) | 1 | 0 | 6.2 | 3.9 | 8.6 | inactive |
| TOR1A (GeneID 1861) | 1 | 0 | 2.9 | 1 | 4.9 | inactive |
| YIPF4 (GeneID 84272) | 1 | 0 | 5 | 3.2 | 6.9 | inactive |
| LINC02764 (GeneID 387810) | 1 | 1 | 10.8 | 14.7 | 6.9 | inactive |
| IL23A (GeneID 51561) | 1 | 0 | -14.3 | -18 | -10.6 | inactive |
| LOC441039 | 1 | 0 | 1.4 | -8.6 | 11.4 | inactive |
| TRAF2 (GeneID 7186) | 1 | 0 | -5.3 | -7.6 | -3.1 | inactive |
| S100A1 (GeneID 6271) | 1 | 0 | -10.5 | -3.9 | -17.2 | inactive |
| SPATA18 (GeneID 132671) | 1 | 0 | 3.8 | 7.3 | 0.4 | inactive |
| MAGEB18 (GeneID 286514) | 1 | 0 | 5.6 | 2.2 | 8.9 | inactive |
| TAP1 (GeneID 6890) | 1 | 0 | -6.2 | 15.1 | -27.6 | inactive |
| LOC440106 | 1 | 0 | 8.1 | 13.1 | 3.1 | inactive |
| LOC400004 | 1 | 0 | 6.2 | -4 | 16.3 | inactive |
| BMX (GeneID 660) | 1 | 0 | 1.4 | 7.9 | -5.2 | inactive |
| ZNF117 (GeneID 51351) | 1 | 0 | 5.8 | 7.6 | 3.9 | inactive |
| ZNF117 (GeneID 51351) | 2 | 1 | 11.2 | 10 | 12.4 | inactive |
| ANKH (GeneID 56172) | 1 | 0 | 15 | 32.4 | -2.4 | inactive |
| PDZD9 (GeneID 255762) | 1 | 0 | 6.4 | 2.5 | 10.3 | inactive |
| MOB1A (GeneID 55233) | 1 | 0 | 5.7 | 3.4 | 8 | inactive |
| LOC441708 | 1 | 0 | 1.1 | -1.7 | 3.8 | inactive |
| ANXA3 (GeneID 306) | 1 | 0 | 22.8 | 45.2 | 0.5 | inactive |
| CES1P1 (GeneID 51716) | 1 | 0 | -15.1 | -7.5 | -22.7 | inactive |
| PID1 (GeneID 55022) | 1 | 0 | 2 | -6.3 | 10.2 | inactive |
| MCUB (GeneID 55013) | 1 | 0 | -0.4 | 7.4 | -8.2 | inactive |
| OR2B11 (GeneID 127623) | 1 | -2 | -17 | -15.6 | -18.3 | active |
| LOC440370 | 1 | 0 | 0.1 | -1.6 | 1.8 | inactive |
| RRP7A (GeneID 27341) | 1 | 0 | 0.3 | 2 | -1.3 | inactive |
| PDCD2L (GeneID 84306) | 1 | 0 | 3.6 | 8.5 | -1.4 | inactive |
| RTEL1 (GeneID 51750) | 1 | -1 | -30.1 | -16.9 | -43.3 | inactive |
| LOC441758 | 1 | 0 | 9.3 | 10.2 | 8.4 | inactive |
| CCL1 (GeneID 6346) | 1 | 0 | 4.2 | 13.5 | -5.2 | inactive |
| LRRC8C (GeneID 84230) | 1 | 0 | 7.3 | 11.6 | 3.1 | inactive |
| WDR5B (GeneID 54554) | 1 | 0 | 3.6 | -1.3 | 8.6 | inactive |
| CALM2 (GeneID 805) | 1 | 0 | 3.8 | 5.9 | 1.7 | inactive |
| CAPN14 (GeneID 440854) | 1 | 0 | 3.7 | -1.2 | 8.6 | inactive |

Laid out differently: results already given.
gene knocked down | reagent no. | two-siRNA summed score (-2 to +2) | mean protection from cisplatin (shift in death) (%) | protection from cisplatin (shift in death), siRNA C (%) | protection from cisplatin (shift in death), siRNA D (%) | Outcome
SPTY2D1 (GeneID 144108) | 1 | 0 | -10 | -3.5 | -16.5 | inactive
MYBPH (GeneID 4608) | 1 | 0 | 11.6 | 26.7 | -3.5 | inactive
NPAS1 (GeneID 4861) | 1 | -1 | -15.5 | -26.3 | -4.7 | inactive
LOC440746 | 1 | 0 | -0.5 | -10.6 | 9.7 | inactive
PAMR1 (GeneID 25891) | 1 | 0 | 4.2 | 10.6 | -2.1 | inactive
AHSG (GeneID 197) | 1 | 0 | -5.1 | -5.1 | -5 | inactive
